This is one part of the list. Many values rest on one well or one pass, so single values are uncertain.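 Imaging used 1,536-well plates; nuclei positive for cleaved PARP by antibody were divided by total DNA-stained nuclei to yield the apoptosis fraction. Doses for screening kept most cells viable, and cell lines differ markedly in resting and induced cleaved-PARP levels.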
Legend:
Assay in all cases: cleaved PARP positive nuclei fraction relative to DMSO control; melanoma cells; higher = more apoptosis
Conditions in all cases: library dose: low library concentration; 72 h
MZ2-MEL = system: MZ2-MEL
MeWo = system: MeWo
RPMI7951 = system: RPMI7951
RVH-421 = system: RVH-421
SkMel28 = system: SkMel28
SkMel2 = system: SkMel2
SkMel30 = system: SkMel30
SkMel5 = system: SkMel5
UACC257 = system: UACC257
UACC62 = system: UACC62
WM115 = system: WM115
WM1716 = system: WM1716
WM1745 = system: WM1745
WM3526 = system: WM3526
WM3619 = system: WM3619
WM451Lu = system: WM451Lu

SMILES	cleaved PARP positive nuclei fraction (MZ2-MEL)	cleaved PARP positive nuclei fraction (MeWo)	cleaved PARP positive nuclei fraction (RPMI7951)	cleaved PARP positive nuclei fraction (RVH-421)	cleaved PARP positive nuclei fraction (SkMel28)	cleaved PARP positive nuclei fraction (SkMel2)	cleaved PARP positive nuclei fraction (SkMel30)	cleaved PARP positive nuclei fraction (SkMel5)	cleaved PARP positive nuclei fraction (UACC257)	cleaved PARP positive nuclei fraction (UACC62)	cleaved PARP positive nuclei fraction (WM115)	cleaved PARP positive nuclei fraction (WM1716)	cleaved PARP positive nuclei fraction (WM1745)	cleaved PARP positive nuclei fraction (WM3526)	cleaved PARP positive nuclei fraction (WM3619)	cleaved PARP positive nuclei fraction (WM451Lu)
Cn1cc(C2=C(c3cn(C4CCN(Cc5ccccn5)CC4)c4ccccc34)C(=O)NC2=O)c2ccccc21 [Enzastaurin] + O=c1cc(-c2cccc3c2Sc2ccccc2S3)oc(N2CCOCC2)c1 [KU55933] (first compound 0.8 µM, partner dose 1 µM)	126%	136%	109%	110%	43.2%	98.9%	99.3%	70.4%	101%	114%	64.3%	154%	115%	33.8%	179%	161%
C=CCNC1=C2C[C@@H](C)C[C@H](OC)[C@H](O)[C@@H](C)/C=C(\C)[C@H](OC(N)=O)[C@@H](OC)/C=C\C=C(/C)C(=O)NC(=CC1=O)C2=O [Tanespimycin] + C/C(O)=C(\C#N)C(=O)Nc1cc(Br)ccc1Br [LFM-A13] (first compound 0.002 µM, partner dose 2 µM)	81.1%	60.8%	180%	114%	101%	91.2%	73.8%	147%	109%	73.6%	58.4%	334%	83.3%	79%	99.2%	66%
Nc1ccn([C@@H]2O[C@H](CO)[C@@H](O)C2(F)F)c(=O)n1 [gemcitabine] + C/C(O)=C(\C#N)C(=O)Nc1cc(Br)ccc1Br [LFM-A13] (first compound 0.0004 µM, partner dose 2 µM)	183%	29.9%	248%	123%	32.5%	50.2%	40.8%	77.9%	35.5%	96.6%	123%	316%	127%	84.9%	133%	153%
CC1(C)CCC(c2ccc(Cl)cc2)=C(CN2CCN(c3ccc(C(=O)NS(=O)(=O)c4ccc(N[C@H](CCN5CCOCC5)CSc5ccccc5)c(S(=O)(=O)C(F)(F)F)c4)cc3)CC2)C1 + Cc1cc(SCc2sc(-c3ccc(C(F)(F)F)c(F)c3)nc2C)ccc1OCC(=O)O [GW0742] (first compound 0.4 µM, partner dose 2 µM)	428%	349%	452%	221%	172%	179%	55.8%	200%	245%	82%	193%	146%	1410%	75.5%	195%	110%
N.N.[Cl][Pt][Cl] [cisplatin] + N#Cc1c(O)c2c(-c3ccc(-c4ccccc4O)cc3)csc2[nH]c1=O [A769662] (first compound 1.6 µM, partner dose 2 µM)	208%	145%	75.4%	119%	168%	113%	281%	158%	52.1%	80.4%	26.6%	110%	89.9%	71.6%	85.3%	193%
Cc1ccc(Nc2nccc(N(C)c3ccc4c(C)n(C)nc4c3)n2)cc1S(N)(=O)=O [Pazopanib] + O=C(Oc1ccc([N+](=O)[O-])cc1)N1CCC(C(O)(c2ccc3c(c2)OCO3)c2ccc3c(c2)OCO3)CC1 [JZL184] (first compound 0.4 µM, partner dose 1 µM)	87.7%	41.4%	92.8%	116%	109%	76.5%	63.7%	44.3%	79%	129%	95.6%	50.7%	99.6%	91.4%	95%	41.3%
C[C@]1(O)C[C@@H](c2nc(-c3ccc4ccc(-c5ccccc5)nc4c3)c3c(N)nccn32)C1 + Cc1cc(SCc2sc(-c3ccc(C(F)(F)F)c(F)c3)nc2C)ccc1OCC(=O)O [GW0742] (first compound 0.4 µM, partner dose 2 µM)	95.1%	146%	80.2%	89.9%	201%	159%	103%	88.5%	142%	166%	31.4%	101%	102%	83.4%	88.6%	42.1%
Cn1cc(C2=C(c3cn(C4CCN(Cc5ccccn5)CC4)c4ccccc34)C(=O)NC2=O)c2ccccc21 [Enzastaurin] + O=C(Nc1ccccc1)c1cc([N+](=O)[O-])ccc1Cl [GW9662] (first compound 0.8 µM, partner dose 2 µM)	104%	20.6%	36.4%	77.4%	18.8%	176%	85.9%	149%	107%	103%	96.5%	27.7%	92.8%	42.8%	96.6%	40%
O=C(/C=C/c1cccnc1)NCCCCC1CCN(C(=O)c2ccccc2)CC1 + O=C(Oc1ccc([N+](=O)[O-])cc1)N1CCC(C(O)(c2ccc3c(c2)OCO3)c2ccc3c(c2)OCO3)CC1 [JZL184] (first compound 0.01 µM, partner dose 1 µM)	497%	253%	199%	215%	58.8%	552%	93.9%	187%	99.5%	223%	169%	113%	73.7%	73.9%	93.6%	67.3%
Cn1cc(C2=C(c3cn(C4CCN(Cc5ccccn5)CC4)c4ccccc34)C(=O)NC2=O)c2ccccc21 [Enzastaurin] + C[C@@H]1CCN(C(=O)CC#N)C[C@@H]1N(C)c1ncnc2[nH]ccc12 [CP690550] (first compound 0.8 µM, partner dose 1 µM)	143%	29%	116%	57.3%	115%	217%	116%	136%	96.4%	136%	21.5%	79.6%	88.8%	122%	90.1%	32.8%
Cn1cc(C2=C(c3cn(C4CCN(Cc5ccccn5)CC4)c4ccccc34)C(=O)NC2=O)c2ccccc21 [Enzastaurin] + CN(C)S(=O)(=O)c1ccc2c(c1)/C(=C/c1cc3c([nH]1)CCCC3)C(=O)N2 [SU6656] (first compound 0.8 µM, partner dose 0.4 µM)	126%	15.2%	104%	85.1%	119%	116%	395%	139%	103%	135%	96.2%	52.5%	95.6%	183%	82.8%	45.3%
CS(=O)(=O)CCNCc1ccc(-c2ccc3ncnc(Nc4ccc(OCc5cccc(F)c5)c(Cl)c4)c3c2)o1 [lapatinib] + Cc1cc(SCc2sc(-c3ccc(C(F)(F)F)c(F)c3)nc2C)ccc1OCC(=O)O [GW0742] (first compound 0.8 µM, partner dose 2 µM)	161%	155%	119%	108%	126%	93%	23.2%	142%	193%	178%	120%	254%	96.8%	210%	105%	96.5%
C[As](C)SC[C@H](NC(=O)CC[C@H](N)C(=O)O)C(=O)NCC(=O)O [Darinaparsin] + NCC(=O)Nc1ccc(-n2nc(C(F)(F)F)cc2-c2ccc3c(ccc4ccccc43)c2)cc1 [OSU03012] (first compound 0.4 µM, partner dose 1 µM)	56.5%	80.8%	52.2%	27.8%	113%	76%	147%	110%	203%	77.4%	121%	102%	195%	110%	91.7%	94.1%
Cn1cc(C2=C(c3cn(C4CCN(Cc5ccccn5)CC4)c4ccccc34)C(=O)NC2=O)c2ccccc21 [Enzastaurin] + CO[C@@H]1[C@H](N(C)C(=O)c2ccccc2)C[C@H]2O[C@]1(C)n1c3ccccc3c3c4c(c5c6ccccc6n2c5c31)C(=O)NC4 [Midostaurin] (first compound 0.8 µM, partner dose 0.08 µM)	104%	141%	72%	68.5%	53.9%	171%	138%	158%	62.4%	96.8%	94.2%	175%	124%	42.4%	79%	50.6%
N.N.[Cl][Pt][Cl] [cisplatin] + Cc1cc(SCc2sc(-c3ccc(C(F)(F)F)c(F)c3)nc2C)ccc1OCC(=O)O [GW0742] (first compound 1.6 µM, partner dose 2 µM)	155%	127%	66.8%	131%	105%	58.6%	27.2%	153%	170%	112%	193%	230%	81.4%	140%	109%	285%
Nc1nc(F)nc2c1ncn2[C@@H]1O[C@H](CO)[C@@H](O)[C@@H]1O [fludarabine] + C/C(O)=C(\C#N)C(=O)Nc1cc(Br)ccc1Br [LFM-A13] (first compound 0.2 µM, partner dose 2 µM)	84%	664%	154%	53.6%	71.9%	1280%	1020%	122%	41.9%	47%	277%	125%	81.4%	1020%	72.6%	516%
CCN(CC)CCNC(=O)c1c(C)[nH]c(/C=C2\C(=O)Nc3ccc(F)cc32)c1C [sunitinib] + C/C(O)=C(\C#N)C(=O)Nc1cc(Br)ccc1Br [LFM-A13] (first compound 0.4 µM, partner dose 2 µM)	97.8%	61%	45.1%	149%	274%	89.4%	56.5%	67%	94%	1090%	69.8%	87.6%	105%	98%	87.2%	118%
CCCCCCCCc1ccc(CCC(N)(CO)CO)cc1 [fingolimod] + O=C(Oc1ccc([N+](=O)[O-])cc1)N1CCC(C(O)(c2ccc3c(c2)OCO3)c2ccc3c(c2)OCO3)CC1 [JZL184] (first compound 2 µM, partner dose 1 µM)	123%	130%	69.9%	140%	153%	87%	31.9%	83.7%	182%	228%	118%	85.8%	102%	84.5%	91.7%	70.1%
Cn1cc(C2=C(c3cn(C4CCN(Cc5ccccn5)CC4)c4ccccc34)C(=O)NC2=O)c2ccccc21 [Enzastaurin] + Cn1cncc1[C@@](N)(c1ccc(Cl)cc1)c1ccc2c(c1)c(-c1cccc(Cl)c1)cc(=O)n2C [tipifarnib] (first compound 0.8 µM, partner dose 0.01 µM)	99%	153%	49.7%	66.4%	67.7%	232%	56.4%	137%	47.5%	224%	102%	88.6%	169%	63.3%	75.3%	235%

Reprinted from the entries so far for reference:
SMILES	cleaved PARP positive nuclei fraction (MZ2-MEL)	cleaved PARP positive nuclei fraction (MeWo)	cleaved PARP positive nuclei fraction (RPMI7951)	cleaved PARP positive nuclei fraction (RVH-421)	cleaved PARP positive nuclei fraction (SkMel28)	cleaved PARP positive nuclei fraction (SkMel2)	cleaved PARP positive nuclei fraction (SkMel30)	cleaved PARP positive nuclei fraction (SkMel5)	cleaved PARP positive nuclei fraction (UACC257)	cleaved PARP positive nuclei fraction (UACC62)	cleaved PARP positive nuclei fraction (WM115)	cleaved PARP positive nuclei fraction (WM1716)	cleaved PARP positive nuclei fraction (WM1745)	cleaved PARP positive nuclei fraction (WM3526)	cleaved PARP positive nuclei fraction (WM3619)	cleaved PARP positive nuclei fraction (WM451Lu)
C=CCNC1=C2C[C@@H](C)C[C@H](OC)[C@H](O)[C@@H](C)/C=C(\C)[C@H](OC(N)=O)[C@@H](OC)/C=C\C=C(/C)C(=O)NC(=CC1=O)C2=O [Tanespimycin] + C/C(O)=C(\C#N)C(=O)Nc1cc(Br)ccc1Br [LFM-A13] (first compound 0.002 µM, partner dose 2 µM)	81.1%	60.8%	180%	114%	101%	91.2%	73.8%	147%	109%	73.6%	58.4%	334%	83.3%	79%	99.2%	66%
Nc1ccn([C@@H]2O[C@H](CO)[C@@H](O)C2(F)F)c(=O)n1 [gemcitabine] + C/C(O)=C(\C#N)C(=O)Nc1cc(Br)ccc1Br [LFM-A13] (first compound 0.0004 µM, partner dose 2 µM)	183%	29.9%	248%	123%	32.5%	50.2%	40.8%	77.9%	35.5%	96.6%	123%	316%	127%	84.9%	133%	153%

— the supplement of paper PMC4604168 (melanoma cell lines)
